Structures can show the parent of a compound that is named as a salt. The list shows a part of the results. Single values of this set are uncertain.
system: Peyronie's disease tunica albuginea primary fibroblasts; experiment: cell viability (DRAQ5 nuclear stain) relative to TGF-beta1-only control; higher = more viable cells; details: 10 µM; TGF-beta1 10 ng/mL; 72 h

SMILES | cell viability [%]
CC[N+](C)(CC)CCOC(=O)C(O)(c1ccccc1)c1ccccc1 [Methylbenactyzine Bromide] | 84.7
C[C@@H]1[C@H](O)[C@@H](C)/C=C/C=C/CC/C=C/C=C/C=C/C=C/[C@H](O[C@H]2O[C@@H](C)[C@H](O)[C@@H](N)[C@H]2O)C[C@@H]2O[C@](O)(C[C@@H](O)[C@H](O)CC[C@@H](O)C[C@@H](O)C[C@@H](O)CC(=O)O[C@H]1C)C[C@H](O)[C@H]2C(=O)O [Nystatin (Fungicidin)] | 99.1
CC(C)NCC(O)c1ccccc1Cl (stereo not drawn) [Clorprenaline HCl] | 90.2
N[C@@H]1C[C@H]1c1ccccc1 [Tranylcypromine (2-PCPA) HCl] | 85.8
[O-][n+]1ccccc1[S-].[O-][n+]1ccccc1[S-].[Zn+2] [Zinc Pyrithione] | 17.9
O=[N+]([O-])C(Br)(CO)CO [Bronopol] | 87.5
CN1[C@@H]2C[C@@H](OC(=O)[C@H](CO)c3ccccc3)C[C@H]1[C@@H]1O[C@@H]12 [Scopolamine HBr] | 87.5
CC(NC(C)(C)C)C(=O)c1cccc(Cl)c1 (stereo not drawn) [Amfebutamone (Bupropion) HCl] | 94.7
NC[C@H](CC(=O)O)c1ccc(Cl)cc1 [(R)-baclofen] | 86.9
Cn1c(CCCC(=O)O)nc2cc(N(CCCl)CCCl)ccc21 [Bendamustine HCl] | 92
CN[C@@H]1[C@@H](O)[C@@H](O[C@@H]2[C@@H](O)[C@H](O[C@H]3O[C@H](CN)CC[C@H]3N)[C@@H](N)C[C@H]2N)OC[C@]1(C)O.CN[C@@H]1[C@@H](O)[C@@H](O[C@@H]2[C@@H](O)[C@H](O[C@H]3O[C@H]([C@@H](C)N)CC[C@H]3N)[C@@H](N)C[C@H]2N)OC[C@]1(C)O.CN[C@@H]1[C@@H](O)[C@@H](O[C@@H]2[C@@H](O)[C@H](O[C@H]3O[C@H]([C@@H](C)NC)CC[C@H]3N)[C@@H](N)C[C@H]2N)OC[C@]1(C)O [Gentamicin Sulfate] | 98.8
CC(=O)O[C@H]1C[C@@H]2CC[C@@H]3[C@H](CC[C@@]4(C)[C@H]3C[C@H]([N+]3(C)CCCCC3)[C@@H]4OC(C)=O)[C@@]2(C)C[C@@H]1[N+]1(C)CCCCC1 [Pancuronium dibromide] | 88.5
c1ccc2c(c1)Nc1ccccc1S2 [Phenothiazine] | 93.5
C[C@]12CCC(=O)C=C1C=C[C@@H]1[C@@H]2CC[C@@]2(C)[C@H]1CC[C@@]2(O)CCC(=O)O [Potassium Canrenoate] | 92
Cc1cccc(C)c1NC(=O)CN1CCCC1=O [Nefiracetam] | 97.8
Cc1cccc(Cc2c[nH]cn2)c1C [Detomidine HCl] | 91.1
CCCC[N+]1(C)[C@@H]2C[C@@H](OC(=O)[C@H](CO)c3ccccc3)C[C@H]1[C@@H]1O[C@@H]12 (stereo partly drawn) [Butylscopolamine Bromide] | 93.7
CC(C)C(Br)C(=O)NC(N)=O (stereo not drawn) [Bromisoval] | 94.2
CNC1CC(N)C(O)C(OC2OC(CO)C(O)C3OC4(OC(C(N)CO)C(O)C(O)C4O)OC23)C1O (stereo not drawn) [Hygromycin B] | 95

SMILES | cell viability [%]
C=CCN1CC[C@]23c4c5ccc(O)c4O[C@H]2C(=O)CC[C@@]3(O)[C@H]1C5 [Naloxone HCl] | 96
Cn1cc(C2=C(c3cn(C4CCN(Cc5ccccn5)CC4)c4ccccc34)C(=O)NC2=O)c2ccccc21 | 101
NC(=O)c1cc(N2CC2)c([N+](=O)[O-])cc1[N+](=O)[O-] | 87.4
CC(C)OC(=O)[C@H](C)N[P@](=O)(CO[C@H](C)Cn1cnc2c(N)ncnc21)Oc1ccccc1 [Tenofovir Alafenamide (GS-7340)] | 73.8
CC(=O)O[C@H]1CC[C@@]2(C)C(=CC[C@@H]3[C@@H]2CC[C@]2(C)C(=O)CC[C@@H]32)C1 [Dehydroepiandrosterone acetate] | 79.2
CC(C)c1cccc(C(C)C)c1O [Propofol] | 94.5
COc1cc2c(c(OC)c1OC)-c1ccc(OC)c(=O)cc1[C@@H](NC(C)=O)CC2 [Colchicine] | 75.8
O=C(O)c1nn(Cc2ccc(Cl)cc2Cl)c2ccccc12 [Lonidamine] | 82
Cc1cc(C(C#N)c2ccc(Cl)cc2)c(Cl)cc1NC(=O)c1cc(I)cc(I)c1O (stereo not drawn) [Closantel] | 87
Cc1cc(C(C#N)c2ccc(Cl)cc2)c(Cl)cc1NC(=O)c1cc(I)cc(I)c1O (stereo not drawn) [Closantel Sodium] | 95.2
CCOC(=O)Nc1ccc(NCc2ccc(F)cc2)cc1N [Retigabine] | 88.4
CCOC(=O)Nc1ccc(NCc2ccc(F)cc2)cc1N [Retigabine 2HCl] | 91.3
CC(O)(CS(=O)(=O)c1ccc(F)cc1)C(=O)Nc1ccc(C#N)c(C(F)(F)F)c1 (stereo not drawn) [Bicalutamide] | 83.7
O=c1cccc2n1C[C@@H]1CNC[C@H]2C1 [Cytisine] | 103
NCC1(CC(=O)O)CCCCC1 [Gabapentin HCl] | 97.9
NCC1(CC(=O)O)CCCCC1 [Gabapentin] | 97.8
Cc1ccc2c(c1)[C@]13CCCC[C@@H]1[C@H](C2)N(C)CC3 [Dimemorfan phosphate] | 90.7
C=C1CC[C@@]2(O)[C@H]3Cc4ccc(O)c5c4[C@@]2(CCN3CC2CC2)[C@H]1O5 [Nalmefene HCl] | 80.7
O=[N+]([O-])O[C@H]1CO[C@H]2[C@@H]1OC[C@H]2O[N+](=O)[O-] [Isosorbide dinitrate] | 97.5

Already shown: entries from further up.
SMILES | cell viability [%]
CCOC(=O)Nc1ccc(NCc2ccc(F)cc2)cc1N [Retigabine 2HCl] | 91.3
CC(O)(CS(=O)(=O)c1ccc(F)cc1)C(=O)Nc1ccc(C#N)c(C(F)(F)F)c1 (stereo not drawn) [Bicalutamide] | 83.7
O=c1cccc2n1C[C@@H]1CNC[C@H]2C1 [Cytisine] | 103
NCC1(CC(=O)O)CCCCC1 [Gabapentin HCl] | 97.9
NCC1(CC(=O)O)CCCCC1 [Gabapentin] | 97.8
Cc1ccc2c(c1)[C@]13CCCC[C@@H]1[C@H](C2)N(C)CC3 [Dimemorfan phosphate] | 90.7
C=C1CC[C@@]2(O)[C@H]3Cc4ccc(O)c5c4[C@@]2(CCN3CC2CC2)[C@H]1O5 [Nalmefene HCl] | 80.7
O=[N+]([O-])O[C@H]1CO[C@H]2[C@@H]1OC[C@H]2O[N+](=O)[O-] [Isosorbide dinitrate] | 97.5

Reference: the supplement of paper PMC9744312
